Columns and labels:
[1] = Colour co-ordinates (L*a*b*) of printed samples; details: printed on gelatine-coated receiving sheet, HP560 ink jet printer
Procedure: (§1) The present invention in so far as it relates to inks is further illustrated by using dyes described in Tables 1, 2 and 3. 100 g of each ink were prepared by heating the dye (3-7 g), 5 g of glycerol, 1.1 g of tetraethyleneglycole and 1.2 g of a biocide solution (Promexal X50, available from Zeneca, Manchester, England) together with water to a temperature of approximately 50° C. under stirring for one hour to make a solution, cooling it down to 20° C., adjusting pH to 7.5 and passing the solution through a Millipore® filter of 0.5 μm pore diameter. The dye quantity was adjusted in a way that the printed density was the same for all dyes.
(§2) An ink receiving sheet for the testing procedures was prepared in the following way: 30 g gelatine with a high isoelectric point (type St 70'810, available from Deutsche Gelatinefabriken, Eberbach, Germany) were dissolved in 360 ml of deionised water. To this solution was added 1 g of a surfactant (Olin 10G, available from Olin Corporation, Norwalk, USA). Immediately before coating 6.6 g of a 3% solution of 2-(4-dimethyl-carbamoyl-pyridino)-ethane-sulfonate was added and the pH was adjusted to 6.5. 100 g/m^2 of this solution was then coated onto an RC paper support using a barcoater. The sheets were dried for 12 hours.
(§3) The inks were then jetted onto these receiving sheets with an HP560 ink jet printer to evaluate their printing performance. The evaluation methods for (A) dye solubility, (B) colour co-ordinates, (C) smudge resistance and (D) light fastness are as follows:
L*a*b*-values were measured on printed samples using a Gretag SPM 100 spectrometer, available from Gretag AG, Regensdorf, Switzerland.

[2] = Light stability: loss of density of printed samples on Xenon irradiation; details: total illumination 20 kJoule/cm^2, 6500 W Xenon lamp; % loss of initial density
Procedure: as §1, §2, §3
The printed samples were irradiated in an Atlas Ci35A Weather-O-Meter® with a 6500 W Xenon lamp until a total illumination of 20 kJoule/cm^2 was reached. The loss of density was measured with an X-Rite® densitometer and is expressed in % loss of initial density.

[3] = Smudge resistance of printed images; parameters: key: ⊕: Little or no smear; .diamond.: Slight smear; .O slashed.: Severe smear; details: HP560 ink jet printer
Procedure: as §1, §2, §3
The smudge behaviour was evaluated by determining the degree of smear of the dye in images printed as described above according to the following criteria:
⊕: Little or no smear
.O slashed.: Severe smear

[4] = Bronzing of printed samples; details: no loss of density figure given
Procedure: as §1, §2
The inks were then jetted onto these receiving sheets with an HP560 ink jet printer to evaluate their printing performance. The evaluation methods for (A) dye solubility, (B) colour co-ordinates, (C) smudge resistance and (D) light fastness are as follows: […]

COc1cc(N=Nc2cccc(S(=O)(=O)O)c2)c(C)cc1N=Nc1c(S(=O)(=O)O)cc2ccc(NCCS(=O)(=O)O)cc2c1O [Compound 1]
L*-Value [1]: 10.0
a*-Value [1]: 13.6
b*-Value [1]: -0.8
Loss of Density in % [2]: 6%
Smudge Value [3]: ⊕

COc1cc(N=Nc2cc(S(=O)(=O)O)c3cccc(S(=O)(=O)O)c3c2)c(C)cc1N=Nc1c(S(=O)(=O)O)cc2ccc(NCCS(=O)(=O)O)cc2c1O [Compound 4]
L*-Value [1]: 2.4
a*-Value [1]: 3.8
b*-Value [1]: -0.9
Loss of Density in % [2]: 3%
Smudge Value [3]: ⊕

Cc1cc(N=Nc2c(S(=O)(=O)O)cc3ccc(NCCS(=O)(=O)O)cc3c2O)c(OCCO)cc1N=Nc1cc(S(=O)(=O)O)c2cccc(S(=O)(=O)O)c2c1 [Compound 5]
L*-Value [1]: 2.6
a*-Value [1]: 2.4
b*-Value [1]: -0.4
Loss of Density in % [2]: 3.3%
Smudge Value [3]: ⊕

COc1cc(N=Nc2ccc3c(S(=O)(=O)O)cc(S(=O)(=O)O)cc3c2)c(C)cc1N=Nc1c(S(=O)(=O)O)cc2ccc(NCCS(=O)(=O)O)cc2c1O [Compound 6]
L*-Value [1]: 15.5
a*-Value [1]: 5.1
b*-Value [1]: 0.7
Loss of Density in % [2]: 5%
Smudge Value [3]: ⊕

COc1cc(N=Nc2c(S(=O)(=O)O)cc3ccc(NCCS(=O)(=O)O)cc3c2O)c(OC)cc1N=Nc1cc(S(=O)(=O)O)c2cccc(S(=O)(=O)O)c2c1 [Compound 7]
L*-Value [1]: 5.8
a*-Value [1]: 4.3
b*-Value [1]: 0.7
Loss of Density in % [2]: 7%
Smudge Value [3]: .diamond.

Cc1cc(N=Nc2c(S(=O)(=O)O)cc3ccc(Nc4cccc(S(=O)(=O)O)c4)cc3c2O)ccc1N=Nc1cc(S(=O)(=O)O)c2cccc(S(=O)(=O)O)c2c1 [Compound 10]
L*-Value [1]: 4.1
a*-Value [1]: 13.0
b*-Value [1]: 2.9
Loss of Density in % [2]: 8.6%
Smudge Value [3]: ⊕

COc1cc(N=Nc2cccc(C(=O)O)c2)c(NC(C)=O)cc1N=Nc1c(S(=O)(=O)O)cc2ccc(N)cc2c1O [Compound 11]
L*-Value [1]: 20.6
a*-Value [1]: 7.5
b*-Value [1]: -1.1
Bronzing (printed in column Loss of Density in %) [4]: Bronzing
Smudge Value [3]: .O slashed.

COc1cc(N=Nc2cccc(C(=O)O)c2)c(NC(C)=O)cc1N=Nc1c(S(=O)(=O)O)cc2ccc(Nc3ccc(C(=O)O)cc3)cc2c1O [Compound 12]
L*-Value [1]: 13.2
a*-Value [1]: 4.6
b*-Value [1]: -3.3
Loss of Density in % [2]: 10.3%
Smudge Value [3]: .diamond.

COc1cc(N=Nc2cccc(C(=O)O)c2)c(NC(C)=O)cc1N=Nc1c(S(=O)(=O)O)cc2ccc(NCCC(=O)O)cc2c1O [Compound 13]
L*-Value [1]: 2.2
a*-Value [1]: 1.3
b*-Value [1]: 1.1
Bronzing (printed in column Loss of Density in %) [4]: Bronzing
Smudge Value [3]: .O slashed.

COc1cc(N=Nc2c(S(=O)(=O)O)cc3ccc(Nc4ccc(C(=O)O)cc4)cc3c2O)c(OC)cc1N=Nc1ccc(C(=O)O)cc1 [Compound 14]
L*-Value [1]: 11.1
a*-Value [1]: 8.1
b*-Value [1]: -5.0
Loss of Density in % [2]: 10.6%
Smudge Value [3]: .O slashed.

COc1cc(N=Nc2cccc(C(=O)O)c2)c(C)cc1N=Nc1c(S(=O)(=O)O)cc2ccc(N)cc2c1O [Compound 15]
L*-Value [1]: 12.9
a*-Value [1]: 8.1
b*-Value [1]: 4.0
Bronzing (printed in column Loss of Density in %) [4]: Bronzing
Smudge Value [3]: .O slashed.

From patent publication US5989326A, “Dyes for ink jet printing” (Ilford Imaging Switzerland GmbH, priority 1997, dated 1999)
